We go through one substance from article PMC9531463.

These are yes or no findings as the source states them, for the method shown. In cells and extracts the contact can be indirect.

The target in this assay is T1, cAMP Responsive Element Binding Protein 3 Like 1 (CREB3L1) (human (endogenous in 8505C)) (UniProt Q96BA8).
T1 sequence: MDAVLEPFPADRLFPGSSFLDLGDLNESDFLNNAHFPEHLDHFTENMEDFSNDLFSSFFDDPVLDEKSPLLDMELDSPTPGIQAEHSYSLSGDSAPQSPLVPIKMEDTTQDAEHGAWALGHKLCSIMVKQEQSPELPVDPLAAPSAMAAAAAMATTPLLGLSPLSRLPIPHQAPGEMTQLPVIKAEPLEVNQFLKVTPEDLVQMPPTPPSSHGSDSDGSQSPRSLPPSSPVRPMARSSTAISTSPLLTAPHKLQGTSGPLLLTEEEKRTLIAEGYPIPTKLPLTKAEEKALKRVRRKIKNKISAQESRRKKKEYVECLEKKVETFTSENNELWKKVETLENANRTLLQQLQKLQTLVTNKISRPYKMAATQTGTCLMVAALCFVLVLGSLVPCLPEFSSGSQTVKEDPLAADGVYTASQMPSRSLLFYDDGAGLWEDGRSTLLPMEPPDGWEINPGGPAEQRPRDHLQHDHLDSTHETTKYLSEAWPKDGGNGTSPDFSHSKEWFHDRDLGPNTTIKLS
Nature of the assay: co-IP; endogenous proteins; 8505C cells (legend: different thyroid cancer cells) lysed in IP buffer, immunoprecipitated with anti-CREB3L1 antibody, Protein A/G magnetic beads, washed three times with IP buffer, western blot. For orientation: A western blot detects proteins with antibodies after separation by electrophoresis.

For “Importin Beta (human (endogenous in 8505C))”, the binding entry is given as “no binding”.
